# Experimental data reported in PubChem BioAssay AID493014 (National Center for Advancing Translational Sciences (NCATS), 2011).
# About 170 (0.05%) of roughly 340,000 compounds were called active. The inconclusive results got no clear call from the source; some entries with a clear call stand among them for comparison. The call rests on the fitted dose curve; in most records, active means well fitted inhibition curve with a large enough effect in the signal ratio, with a control signal flat (not every such curve was filed as active); inconclusive means small, poorly fitted or top-dose-only effect, or effect the other way, or a change in a side signal; inactive means flat fitted curve, though single readings scatter; the % refers to the signal ratio. Potencies of inconclusive entries are doubtful fits and often do not repeat.
# Test: qHTS Assay to Find Inhibitors of Chronic Active B-Cell Receptor Signaling;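 on activity change, negative = inhibition: plate controls were basal doxycycline-induced cells for no effect and cells given 10 µM MG132 for full effect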
# Conditions: ABC-DLBCL IkBa-CBG/CBR reporter, luminescence ratio (green luciferase fused to IkBa over red control in TMD8 lymphoma cells), 4 h; activity change, negative = inhibition: at 46.1 µM (top of the series)
# How it was run: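 Doxycycline induced both beetle luciferases in TMD8 lymphoma cells; IKK-driven degradation limits the IkappaBalpha-fused green signal, while red luminescence normalises for cell number and nonspecific effects. Compounds tested up to 46 uM, 4 hrs.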
# Potency means the concentration at half of the fitted maximal effect.
Compound,"activity change, negative = inhibition",Potency
CC1CC(OC(=O)c2ccccc2)(c2ccccc2)C(C)CN1C (stereo not given),inconclusive: -4.22%,–
Cc1nn(Cc2ccccc2Cl)c(C)c1C(=O)OCC(=O)N1CC(C)OC(C)C1 (stereo not given),–,"inconclusive: 23.1 µM [falling, single point]"
CCOC(=O)c1c(-c2ccc(OC)cc2)oc2ccc(OC(=O)N(C)C)cc12,inconclusive: -14.7%,–
CCCNC1=C(C)C(=O)C2=C(C1=O)C(COC(N)=O)[C@]1(OC)C3NC3CN21 (stereo not given in full),inconclusive: 1.25%,–
C[C@H]1CCC/C=C/C2C[C@H](O)CC2[C@H](O)/C=C/C(=O)O1 (stereo not given in full),–,"inconclusive: 32.6 µM [falling, partial curve, poor fit]"
CN1CCN(CC#CCOc2ccc(Cl)cc2)CC1,inactive,–
O=C(Cc1ccc(Cl)cc1)Nc1ccc(N2CCN(C(=O)c3ccco3)CC2)c(Cl)c1,inconclusive: -1.2%,–
COc1ccc(CN2C(=O)NC(=O)/C(=C/c3ccc([N+](=O)[O-])s3)C2=O)cc1,inactive,–
N#CC1=C(N)Oc2c(c(=O)oc3ccccc23)C1c1ccc(OC(=O)N2CCOCC2)cc1 (stereo not given),inconclusive: 11%,–
Cc1ccccc1-n1c(C)nc2ccccc2c1=O,inactive,–
CC1Oc2cc3c(-c4c(O)cc(O)c5c(O)c6c(cc45)OC(C)C(C)C6=O)c(O)cc(O)c3c(O)c2C(=O)C1C (stereo not given),–,"inconclusive: 15.8 µM [rising, partial curve, poor fit]"
CCN(CC)S(=O)(=O)c1ccc(NN=C(C#N)C#N)cc1,inactive,–
O=C(c1cc(F)ccc1F)C1CCCN(Cc2ccc3nonc3c2)C1 (stereo not given),inactive,–
O=C(c1ccc2c(c1)ncn2C1CCCCC1)N1CCC2(CC1)OCCO2,–,"inconclusive: 22.4 µM [falling, single point]"
Cc1ccc(Cl)cc1N1CCN(CCN)CC1,inconclusive: -0.472%,–
Cc1cc(N)n(C2CCN(C)CC2)n1,inconclusive: -1.96%,–
CCCCCc1ccc(C(=O)CCCC)c(=S)[nH]1,inconclusive: 23%,–
Cc1ccc(-c2cc(C(F)F)n3ncc(C(=O)N4CCC5(CC4)OCCO5)c3n2)cc1,–,"inconclusive: 32.6 µM [rising, single point]"
CCOc1ccc(N2C(=O)NC(=O)/C(=C\c3ccc(N4CCOCC4)cc3C)C2=O)cc1,inactive,–
Nc1nc(-c2ccccc2)cn1/N=C/c1ccccc1,–,"inconclusive: 17.8 µM [falling, partial curve]"
Cc1ccc(-n2cnn(-c3ccc([N+](=O)[O-])cc3[N+](=O)[O-])c2=O)cc1,inconclusive: 8.11%,–
O=C(Nc1ccc(OC(F)(F)F)cc1)Oc1ccccc1N1CCCCC1,inconclusive: -22.7%,–
Cc1ccccc1-c1nnc(-c2ccc(Br)cc2)o1,inconclusive: 4.3%,–
CCCCC(CC)COCCCN=Cc1c(O)[nH]c(=S)[nH]c1=O (stereo not given),inconclusive: -0.29%,–
O=c1nc(/C=C/c2ccc(Cl)cc2Cl)cc(C(F)(F)F)[nH]1,–,"inconclusive: 15.8 µM [falling, partial curve, poor fit]"
CCCN(CC1CC1)CC(O)c1ccccc1 (stereo not given),inactive,–
O=C(N/N=C/c1c(O)n(C2CC2)c(=S)[nH]c1=O)c1ccccc1O,–,"inconclusive: 29.1 µM [rising, single point]"

Compound,"activity change, negative = inhibition",Potency
Fc1ccc(CN2CCN(c3ccc(Cl)cc3)CC2)cc1,inconclusive: 14.6%,–
CC(C)OCCCNC(=O)c1c(N)n(CC2CCCO2)c2nc3ccccc3nc12 (stereo not given),inconclusive: -0.0832%,–
c1ccc(-c2cccc(-c3ccccc3)n2)cc1,inconclusive: 0.143%,–
COc1ccc(-[n+]2c(-c3ccccc3)cc(-c3ccc(C)cc3)cc2-c2ccccc2)cc1,inconclusive: -9.3%,–
COc1ccc(C(=O)Nc2ccccc2C(=O)Nc2ccccc2C(=O)O)cc1,–,"inconclusive: 20 µM [falling, single point]"
CN[C@@H]1C[C@@H](c2ccc(Cl)c(Cl)c2)c2ccccc21,inconclusive: 22.9%,–
CCC(C)NC(=O)c1c(N)n(Cc2ccc3c(c2)OCO3)c2nc3ccccc3nc12 (stereo not given),inconclusive: 6.54%,–
CN(C)C(Cc1ccc(C#N)cc1)C(=O)c1ccccc1 (stereo not given),–,"inconclusive: 13 µM [rising, partial curve, poor fit]"
O=c1[nH]c2ccccc2c(=O)n1-c1cccc(Cl)c1,inactive,–
Oc1ccccc1CN(CCc1ccccc1)Cc1ccccc1,inconclusive: 4.73%,–
O=Cc1cn(Cc2cccc([N+](=O)[O-])c2)c2ccccc12,inactive,–
O=c1[nH]c(=S)[nH]c(O)c1N=Nc1ccc2c(c1)OCO2,–,"inconclusive: 5.62 µM [falling, full curve]"
Cc1ccc(NC2=NCCCS2)c(C)c1C,inactive,–
O=C(N/N=C/c1c(O)n(Cc2ccco2)c(=O)[nH]c1=O)c1ccccc1O,–,"inconclusive: 15.8 µM [falling, partial curve]"
COc1cccc(NC(=O)C(=O)NCCCn2ccnc2)c1,inconclusive: -15.6%,–
CN1CCN(c2ccc([N+](=O)[O-])c3no[n+]([O-])c23)CC1,inconclusive: 19.8%,–
CCOCC(=O)NC1CCSC1=O (stereo not given),inconclusive: -1.4%,–
Brc1cc(Br)c(Oc2cc(Br)c(Br)cc2Br)cc1Br,inconclusive: -2.34%,–
NC(=O)c1ccc(OCCC(O)N2CC=C(c3ccc(F)cc3)CC2)cc1 (stereo not given),inactive,–
CCN(CC)C(=O)c1ccc(NC(=O)c2cccc(S(=O)(=O)N3CCN(Cc4ccccc4)CC3)c2)cc1,inactive,–
CC(C)Oc1cc(-n2c(=S)[nH]c3ccccc3c2=O)c(Cl)cc1Cl,–,"inconclusive: 15.8 µM [rising, single point]"
CCOC(=O)c1c(C)n(Cc2ccccc2)c2ccc(OCC(O)Cn3nc(C)cc3C)cc12 (stereo not given),–,"inconclusive: 13 µM [rising, partial curve, poor fit]"
O=C(N/N=C/c1c(O)n(Cc2ccccc2)c(=O)[nH]c1=O)c1ccccc1O,–,"inconclusive: 5.17 µM [falling, partial curve]"
O=C(C(=O)N1CCOCC1)c1cn(Cc2ccccc2F)c2ccccc12,inconclusive: -1.96%,–
CC(C)CCn1c(N)c(C(=O)NCc2cccs2)c2nc3ccccc3nc21,inactive,–
C=CCN1C(=O)/C(=C/c2cc(C)n(-c3cccnc3)c2C)C(=O)NC1=S,inconclusive: -1.05%,–
Clc1ccc(CSC(Cn2ccnc2)c2ccc(Cl)cc2Cl)cc1 (stereo not given),–,"inconclusive: 18.4 µM [falling, partial curve, poor fit]"

# Entries shown so far with a CF3 group, in the order listed:
Compound,"activity change, negative = inhibition",Potency
O=C(Nc1ccc(OC(F)(F)F)cc1)Oc1ccccc1N1CCCCC1,inconclusive: -22.7%,–
O=c1nc(/C=C/c2ccc(Cl)cc2Cl)cc(C(F)(F)F)[nH]1,–,"inconclusive: 15.8 µM [falling, partial curve, poor fit]"

# Rewritten with bars between the fields: entries from further up.
Compound | activity change, negative = inhibition | Potency
COc1cccc(NC(=O)C(=O)NCCCn2ccnc2)c1 | inconclusive: -15.6% | –
CN1CCN(c2ccc([N+](=O)[O-])c3no[n+]([O-])c23)CC1 | inconclusive: 19.8% | –

# (further entries)

Compound,"activity change, negative = inhibition",Potency
Cc1n[nH]c(C)c1CCN,inactive,–
CC1CN=C(Nc2ccc(F)c(Cl)c2)S1 (stereo not given),inconclusive: 7.66%,–
CC(=O)c1ccc(NC(=O)C(C)Sc2nnnn2C)cc1 (stereo not given),inconclusive: 3.63%,–
CCOP(=O)(OCC)Oc1cc(C)c(N(C)C)c(C)c1,inconclusive: 2.38%,–
C1CNC2NCCNC2N1 (stereo not given),inconclusive: 6.46%,–
CCc1ccc(C2=CC(c3c(F)cccc3Cl)n3c(nc4ccccc43)N2)cc1 (stereo not given),–,"inconclusive: 31.6 µM [rising, partial curve]"
COc1ccc(N=N/C(=C\O)C(=O)c2cccs2)cc1,–,"inconclusive: 25.1 µM [falling, single point]"
CCCCCCCCCCOC(=O)Cn1c(COc2ccc(OC)cc2)[n+](C)c2ccccc21,–,"inconclusive: 14.1 µM [falling, partial curve, poor fit]"
CCOP(=S)(OCC)N1CCOCCOCCN(P(=S)(OCC)OCC)CCOCCOCC1,inconclusive: -5.96%,–
C#C[C@]1(O)CC[C@H]2[C@@H]3CCC4=Cc5nc6nc7ccccc7n6cc5C[C@]4(C)[C@H]3CC[C@@]21C,–,"inconclusive: 25.9 µM [falling, partial curve]"
O=P(O)(O)C#Cc1ccccc1,inconclusive: 7.45%,–
Cc1sc(-n2c(C)cc(C=C3C(=O)NC(=O)NC3=O)c2C)c(C#N)c1C,–,"inconclusive: 25.9 µM [falling, partial curve, poor fit]"
COc1ccc(OCC(=O)N2CCN(Cc3nc4cc([N+](=O)[O-])ccc4n3C)CC2)cc1,inactive,–
Cc1cc(OCC(=O)Nc2c(C)n(C)n(-c3ccccc3)c2=O)c2c3c(c(=O)oc2c1)CCC3,inactive,–
CC(C)(C)c1ccc(C(=O)C2CCCN(C3CCC3)C2)cc1 (stereo not given),inconclusive: 15.8%,–
Nc1ccccc1C(=O)c1ccccc1,inconclusive: 3.97%,–
CN1CCN(c2ccc([N+](=O)[O-])cc2Cl)CC1,inactive,–
O=P(O)(O)/C=C(\Cl)c1ccccc1,inactive,–
CCCC[C@@H]1CN=C(N)N1CCc1cc(C(F)(F)F)cc(C(F)(F)F)c1,inconclusive: -0.192%,–
Cc1cc([N+](=O)[O-])c2ccccc2[n+]1[O-],inconclusive: 1.61%,–
Cc1cc(C)cc(N2C(=O)/C(=C\c3ccc(N4CCN(C)CC4)o3)C(=O)NC2=S)c1,inconclusive: -3.41%,–
Cc1cc(NC(=O)CCl)nn1C,–,"inconclusive: 10 µM [falling, partial curve, poor fit]"
Cc1ccc(-n2c(O)c(/C=N/Nc3ccccc3)c(=O)[nH]c2=O)cc1C,inactive,–
CCCC[N+]1(C)[C@@H]2CC(OC(=O)[C@H](CO)c3ccccc3)C[C@H]1[C@@H]1O[C@@H]12 (stereo not given in full),inconclusive: 8.35%,–
CCOC(=O)C1=C(NC(=S)NC(=O)c2ccccc2)c2ccccc2CC12CCCC2,–,"inconclusive: 16.4 µM [rising, partial curve, poor fit]"
CC(=O)[C@H]1CC[C@H]2[C@@H]3CCC4=CC(=O)CC[C@]4(C)[C@H]3CC[C@]12C,–,"inconclusive: 6.31 µM [falling, partial curve, poor fit]"
